From US12433962B2, “Probes for imaging b-amyloid and inhibition of β-amyloid aggregation” (The Hong Kong University of Science and Technology, priority 2021, dated 2025)
Some of these results come from one statement about several compounds together. For at least one compound, name, drawing or mass did not settle the structure.

Protein sequences, listed by entry. Tags and fused reporters are not part of them. Residues count along the entry.
UniProt P05067, 672-713 limits assumed: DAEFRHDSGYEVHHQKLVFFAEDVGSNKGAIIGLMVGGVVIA

Target: Aβ42 fibril (Homo sapiens, UniProt P05067)
Assay: Fluorescent response upon binding to Aβ42 fibrils in phosphate buffer
Details: titrated with Aβ42 fibril in phosphate buffer; dye 1 μM
Procedure: FIG. 4 depicts determination of the binding constant of DNTPH for Aβ42 aggregates. (A) Plot of the PL intensity as a function of the concentration of DNTPH in the presence of Aβ42 aggregates (3 μM) in PBS solution (pH=7.4); (B)Response time of DNTPH binding to Aβ42 aggregates. […] (D) Ultrahigh S/N ratio of DNTPH toward Aβ42 aggregates compared to the background signals in PBS and that towards BSA.
It was investigated whether DNTPH has a fluorescent response upon binding to Aβ aggregates. When DNTPH was titrated with the Aβ42 fibril in phosphate buffer, a strong and progressive increase (up to about 18-fold) in red fluorescence intensity concomitant was observed, which took ˜30 min to reach a plateau. Without wishing to be bound by theory, it is believed that DNTPH is capable of binding hydrophobic surfaces in aggregated amyloid fibrils with the help of the binding unit, resulting in the decrease of conformational freedom and rotational restriction. […] That is because these three probes show high background signals, which results in low S/N ratio even with a decent fluorescent response to testing objects.

SMILES | increase in fluorescence intensity (fluorescent response) to Aβ42 fibril
CCN(CC)c1ccc2cc(C=Cc3cc[n+](CCO)cc3)c(=O)oc2c1.[Br-] [DCPH] | less than 2 fold
CCN(CC)c1ccc2cc(C=C(C#N)c3nc4ccccc4s3)c(=O)oc2c1 [DCTB] | less than 2 fold
